From US8530465B2, “1, 2-disubstituted amido-anthraquinone derivatives, preparation method and application thereof” (National Defense Medical Center, priority 2010, dated 2013) come the findings set out here.

The subject of the series is 60 kinds of different human cancer cells. Nature of the series: NCI in vitro 60-cell Drug Screen, whole panel. As to conditions: over tested cell lines; 1.00E−5 Molar. The format is cell-based. On the procedure:
In brief, cellular protein levels were determined after 48 hours of drug exposure by sulforhodamine B colorimetry. Through the use of a time 0 cell control, the cell growth can be determined for each cell line thus allowing calculations of the 50% growth inhibitory concentration (GI50), the total growth inhibition (TGI), and the 50% lethal concentration (LC50). Comparison to plates not exposed to drug permits determination of concentration and times of exposure conferring 50% net growth inhibition (GI50), TGI, and 50% cell kill (LC50).
From the data analysis it follows that approximately 95% of the actives (potent anticancer drugs) from the 60 cell line screen can be identified. By these criteria, five compounds (each with its certification number, refer to FIG. 4) of the invention were reported that having anticancer activity.
The screening system in United State National Cancer Institute (NCI) is consisted of 60 kinds of different human cancer cells, which can be used to assay the growth-inhibiting ability or cell toxicity of a compound against various cancer and tumor at a certain concentration.
For the compound `Cc1ccc(C(=O)Nc2ccc3c(c2NC(=O)c2ccc(C)cc2)C(=O)c2ccccc2C3=O)cc1` [CC-04, 1,2-bis-(4-methylbenzamido)-anthraquinone], the “Growth Percent, Delta” value amounted to 29.65% and the “Growth Percent, Range” value is reported as 76.37%.

As to `Cc1ccc(C(=O)Nc2c(NC(=O)CCl)ccc3c2C(=O)c2ccccc2C3=O)cc1` [CC-12, 1-(4-methylbenzamido)-2-(chloroacetamido)-anthraquinone], the “Growth Percent, Delta” value is on record as 96.76% and the “Growth Percent, Range” value stood at 229.24%.

As for `O=C(CCl)Nc1ccc2c(c1NC(=O)Cc1ccccc1)C(=O)c1ccccc1C2=O` [CC-23, 1-[2-(phenyl)acetylamino]-2-(chloroacetamido)-anthraquinone], the “Growth Percent, Delta” value worked out at 105.03% and the “Growth Percent, Range” value amounted to 155.52%.

Turning to `Cc1ccc(C(=O)Nc2c(NC(=O)CN3CCCC3)ccc3c2C(=O)c2ccccc2C3=O)cc1` [CC-38, 1-(4-methylbenzamido)-2-[2-(tetrahydro-1H-1-pyrrolyl)acetylamino]-anthra quinone], the “Growth Percent, Delta” value is listed as 43.19% and the “Growth Percent, Range” value is 82.09%.

Turning to `Cc1ccc(C(=O)Nc2c(NC(=O)CN3CCN(C)CC3)ccc3c2C(=O)c2ccccc2C3=O)cc1` [CC-43, 1-(4-methylbenzamido)-2-[2-(4-methylpiperazino)acetylamino]-anthraquinone], the “Growth Percent, Delta” value is reported as 106.75% and the “Growth Percent, Range” value is recorded as 183.68%.
